Source: article PMC9701179, “New tricyclic systems as photosensitizers towards triple negative breast cancer cells” (Archives of Pharmacal Research, 2022)

Test system: MDA-MB-231 cells
Assay: Cellular accumulation and biodistribution (confocal microscopy)
Format: cell-based, human
Conditions: MDA-MB-231, upon irradiation, confocal microscopy × 20
Description: MDA-MB-231 cells were seeded into 4-well tissue-culture slides (BD Falcon, Bedford, MA, USA) at 2.5 × 10^4 cells/well (0.4 cm^2). After 24 h, after 1 h of incubation the medium was replaced with PBS and cells were treated with 2.0 J cm^−2 of UVA light. After irradiation, PBS was replaced with complete proliferation media. Samples were examined at 20 × magnification in a Zeiss LSM 800 confocal microscope using the Zeiss ZEN 2.3 software system.
With the aim of correlating cellular phototoxic activity with intracellular accumulation of tested compounds, we performed some preliminary in cell biodistribution studies.
Fig. 7 Intracellular accumulation studies. MDA-MB-231 TNBC cells were treated with 7h, 8e and 8h upon irradiation and live samples were examined at × 20 magnification by a confocal microscope

| Structure (SMILES) | Intracellular accumulation |
| --- | --- |
| CC(C)OC(=O)C1(Br)C=CC2=C3NC(=O)C(S(=O)(=O)c4ccccc4)C=C3CCCN21 (stereo not drawn) [Compound 8h, Propan-2-yl 3-(benzenesulfonyl)-9-bromo-2-oxo-1,5,6,7-tetrahydro-2H-pyrido[2,3-c]pyrrolo[1,2-a]azepine-9-carboxylate] | barely effective in accumulating into cancer cells |
| CCOC(=O)c1ccc2n1CCCc1cc(S(=O)(=O)c3ccccc3)c(OC)nc1-2 [Compound 8e, Ethyl 3-(benzenesulfonyl)-2-methoxy-6,7-dihydro-5H-pyrido[2,3-c]pyrrolo[1,2-a]azepine-9-carboxylate] | able to significantly enter cancer cell membrane and accumulate in cytoplasm |
| CCOC(=O)c1ccc2n1CCc1cc(S(=O)(=O)c3ccccc3)c(OC)nc1-2 [Compound 7h, Ethyl 3-(benzenesulfonyl)-2-methoxy-5,6-dihydropyrrolo[1,2-h][1,7]naphthyridine-8-carboxylate] | able to significantly enter cancer cell membrane and accumulate in cytoplasm |

Test system: not listed separately
Assay: Singlet oxygen determination (RNO photobleaching, cell-free)
Format: physicochemical
Conditions: compound 2.2 × 10^–5 M, phosphate buffer pH 7.3, UVA 0–20 J/cm^2
Description: Singlet oxygen determination. Samples containing the compounds under examination (2.2 × 10^–5 M), p-nitrosodimethylaniline (4 × 10^–5 M) and imidazole (4 × 10^–5 M) in 0.02 M phosphate buffer (pH 7.3) were irradiated with increasing UVA doses and their absorbance at 440 nm was then measured (Kraljic and El Mohsni [1978]). The data were expressed as percentage of RNO bleaching.
The percentage of RNO photobleaching of tested compounds under increasing light doses, which is a measure of singlet oxygen generation, is shown in Fig. 2.

| Structure (SMILES) | Singlet oxygen generation (percentage of RNO photobleaching at 440 nm) |
| --- | --- |
| CC(C)OC(=O)C1(Br)C=CC2=C3NC(=O)C(S(=O)(=O)c4ccccc4)C=C3CCCN21 (stereo not drawn) [Compound 8h, Propan-2-yl 3-(benzenesulfonyl)-9-bromo-2-oxo-1,5,6,7-tetrahydro-2H-pyrido[2,3-c]pyrrolo[1,2-a]azepine-9-carboxylate] | higher percentage of RNO photobleaching |
| CC(C)OC(=O)c1ccc2n1CCc1cc(S(=O)(=O)c3ccccc3)c(=O)[nH]c1-2 [Compound 7c, Propan-2-yl 3-(benzenesulfonyl)-2-oxo-1,2,5,6-tetrahydropyrrolo[1,2-h][1,7]naphthyridine-8-carboxylate] | with the exception of 7a and 7c, were able to generate singlet oxygen |
| O=c1[nH]c2c(cc1S(=O)(=O)c1ccccc1)CCn1cccc1-2 [Compound 7a, 3-(benzenesulfonyl)-5,6-dihydropyrrolo[1,2-h][1,7]naphthyridin-2(1H)-one] | with the exception of 7a and 7c, were able to generate singlet oxygen |
